Measurements published in publication PMC4729829, “BAP1/ASXL1 recruitment and activation for H2A deubiquitination” (Nature Communications, 2016).
Results are given in words; binding and its absence hold for the method and conditions named.

Sequences of proteins named here, by UniProt entry; tags and fusion partners are left off. Residues count along the entry.
UniProt Q8IXJ9, residues 238-390: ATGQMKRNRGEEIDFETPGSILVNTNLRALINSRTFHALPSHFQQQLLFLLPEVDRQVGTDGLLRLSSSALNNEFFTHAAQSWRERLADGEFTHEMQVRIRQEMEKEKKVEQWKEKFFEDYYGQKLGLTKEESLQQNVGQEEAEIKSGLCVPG
UniProt Q92560, residues 1-670: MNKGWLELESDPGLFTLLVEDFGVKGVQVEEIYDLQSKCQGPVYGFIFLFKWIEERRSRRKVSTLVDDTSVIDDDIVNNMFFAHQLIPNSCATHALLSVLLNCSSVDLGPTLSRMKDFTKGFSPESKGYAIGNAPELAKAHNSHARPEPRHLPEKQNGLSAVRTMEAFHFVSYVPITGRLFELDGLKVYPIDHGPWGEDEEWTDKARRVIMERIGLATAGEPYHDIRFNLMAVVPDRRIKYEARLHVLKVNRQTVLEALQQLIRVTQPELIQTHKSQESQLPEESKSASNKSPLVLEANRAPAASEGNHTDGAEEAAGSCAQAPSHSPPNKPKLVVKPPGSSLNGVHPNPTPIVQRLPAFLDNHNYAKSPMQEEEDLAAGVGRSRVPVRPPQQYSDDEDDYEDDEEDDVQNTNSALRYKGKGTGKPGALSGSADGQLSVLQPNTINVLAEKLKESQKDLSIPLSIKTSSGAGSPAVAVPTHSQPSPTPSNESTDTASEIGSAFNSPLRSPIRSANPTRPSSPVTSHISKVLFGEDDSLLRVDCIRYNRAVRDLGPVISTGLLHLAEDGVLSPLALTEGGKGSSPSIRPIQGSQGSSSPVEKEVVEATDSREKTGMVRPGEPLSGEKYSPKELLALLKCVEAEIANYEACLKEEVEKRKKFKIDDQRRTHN

What was measured:
[1] = target: ASXL1 DEUBAD domain (aa 238-390) (human) (UniProt Q8IXJ9); assay: SEC-MALS; miniDawn detector in line with Superdex S75 10/30 (ASXL1DEU), Superose 6 10/30 (BAP1) or Superdex S200 10/30 (BAP1/ASXL1DEU); 10 mM HEPES pH 7.5, 150 mM NaCl, 0.5 mM TCEP, 4 °C; molecular weights from the refractive index signal; both purified
[2] = target: BAP1 1-670 (disrupted ULD domain) (human) (UniProt Q92560); assay: SEC; S200 5/150 size exclusion chromatography column; fractions on SDS-PAGE; both purified
[3] = target: ASXL1 DEUBAD domain (aa 238-390) (human) (UniProt Q8IXJ9); assay: SEC-MALS; SEC-MALLS, miniDawn detector; Superdex S75 10/30 (ASXL1^DEU), Superose 6 10/30 (BAP1) or Superdex S200 10/30 (BAP1/ASXL1^DEU); 10 mM HEPES pH 7.5, 150 mM NaCl, 0.5 mM TCEP; 4 °C; both purified
[4] = target: BAP1 1-670 (disrupted ULD domain, lacks the predicted ASXL1^DEU-binding site) (human) (UniProt Q92560); assay: condition: 30 μM ASXL1^DEU titrated into 13 μM BAP1 variant; ITC; 30 μM ASXL1^DEU in the syringe titrated (10 or 5 μl injections) into 13 μM BAP1 variant in the cell; 25 °C; 25 mM HEPES pH 7.5, 150 mM NaCl, 10% glycerol, 0.5 mM TCEP; one-site binding model; both purified
[5] = target: BAP1 1-670 (disrupted ULD domain, lacks the predicted ASXL1^DEU-binding site) (human) (UniProt Q92560); assay: SEC; gel filtration of BAP1 1-670 with ASXL1^DEU (Supplementary Fig. 1h); both purified
[6] = target: BAP1 1-670 (disrupted ULD domain) (human) (UniProt Q92560); assay: condition: 30 μM ASXL1DEU titrated into 13 μM of BAP1 variant; ITC; VP-ITC at 25 °C; 25 mM HEPES pH 7.5, 150 mM NaCl, 10% glycerol, 0.5 mM TCEP; 30 μM ASXL1DEU (syringe) titrated into 13 μM BAP1 variant (cell), 10 or 5 μl injections; one-site binding model; both purified

Measured: binding

ASXL1 DEUBAD domain (aa 238-390) (from UniProt Q8IXJ9 238-390) (domain or fragment)
no binding: all assays above
